The target of the assay is OVA. Description: ELISA, plate coated with OVA as control, detection with scFv F8. For orientation: An ELISA detects its analyte on a solid surface through an enzyme-linked reagent.

These are yes or no findings as the source states them, for the method shown.

B1: anti-EDA F8 scFv (purified recombinant antibody fragment) (scFv)
scFv: EVQLLESGGGLVQPGGSLRLSCAASGFTFSVMKMSWVRQAPGKGLEWVSAISGSGGSTYYADSVKGRFTISRDNSKNTLYLQMNSLRAEDTAVYYCAKSTHLYLFDYWGQGTLVTVSSGGGGSGGGGSGGGGSGGGGSEIVLTQSPGTLSLSPGERATLSCRASQSVSNAFLAWYQQKPGQAPRLLIYGASSRATGIPDRFSGSGSGTDFTLTISRLEPEDFAVYYCQQMRGRPPTFGQGTKVEIKHHHHHH
notes: Expressed in E. coli BL21(DE3) from pET20b and purified on protein A Sepharose; also called scFv F8; scFv (F8)
In the case of B1, the binding result is on record as “no binding (tested: coating concentration not printed)”.

The values are drawn from US20260007697A1 (FUNDACI N PARA LA INVESTIGACI N M DICA APLICADA, published 2026).
